# Data reported in patent publication US10513529B2, “1,2,4-triazolo-[3,4-b]-1,3,4-thiadiazole derivatives” (GALENICA S.A., priority 2016, dated 2019).
# Some entries share one result that the patent states for a list of compounds.
# System: C57BI/6 mice
# Format: in vivo
# Settings: i.p., acute toxicity
# Protocol: The acute toxicity of the compounds was assessed from lethality by testing different concentrations, starting at 100mg/kg. […] For intraperitoneal (i.p.) treatment, stock solutions of the tested compounds were prepared immediately before use. They were suspended in corn oil in the desired concentration following initial dissolution in 10% dimethylsulfoxide (DMSO). C57BI/6 male and female were used for toxicity studies. Mice were kept under conditions of constant temperature and humidity in sterile cages with water and food.
row,Compound,LD10
1,"COc1ccc(Cc2nn3c(Cc4cc(OC)c(OC)cc4S(=O)(=O)N(C)C)nnc3s2)cc1 [TS50, 3-[2-(N,N-dimethylsulfamoyl)-4,5-dimethoxybenzyl]-6-(4-methoxybenzyl)-1,2,4-triazolo[3,4-b]-1,3,4-thiazole]",> 500 mg/kg
2,"COc1ccc(Cc2nn3c(Cc4cc(OC)c(OC)cc4S(=O)(=O)N(C)C)nnc3s2)cc1OC [TS51, 3-[2-(N,N-dimethylsulfamoyl)-4,5-dimethoxybenzyl]-6-(3,4-dimethoxybenzyl)-1,2,4-triazolo[3,4-b]-1,3,4-thiazole]",> 500 mg/kg
3,"COc1cc(Cc2nnc3sc(CCCc4ccccc4)nn23)c(S(=O)(=O)N(C)C)cc1OC [TS52, 3-[2-(N,N-dimethylsulfamoyl)-4,5-dimethoxybenzyl]-6-(3-phenylpropyl)-1,2,4-triazolo[3,4-b]-1,3,4-thiazole]",> 500 mg/kg
4,"COc1ccccc1CCc1nn2c(Cc3cc(OC)c(OC)cc3S(=O)(=O)N(C)C)nnc2s1 [TS54, 3-[2-(N,N-dimethylsulfamoyl)-4,5-dimethoxybenzyl]-6-[2-(2-methoxyphenyl)ethyl]-1,2,4-triazolo[3,4-b]-1,3,4-thiazole]",> 500 mg/kg
5,"COc1ccc(CCc2nn3c(Cc4cc(OC)c(OC)cc4S(=O)(=O)N(C)C)nnc3s2)cc1 [TS55, 3-[2-(N,N-dimethylsulfamoyl)-4,5-dimethoxybenzyl]-6-[2-(4-methoxyphenyl)ethyl]-1,2,4-triazolo[3,4-b]-1,3,4-thiazole]",> 500 mg/kg
6,"COc1cc(Cc2nnc3sc(COc4ccccc4)nn23)c(S(=O)(=O)N(C)C)cc1OC [TS56, 3-[2-(N,N-dimethylsulfamoyl)-4,5-dimethoxybenzyl]-6-phenoxymethyl-1,2,4-triazolo[3,4-b]-1,3,4-thiazole]",> 500 mg/kg
7,"COc1cc(Cc2nnc3sc(-c4ccccc4N)nn23)c(S(=O)(=O)N(C)C)cc1OC [TS57, 3-[2-(N,N-dimethylosulfamoyl)-4,5-dimethoxybenzyl]-6-(2-aminophenyl)-1,2,4-triazolo[3,4-b]-1,3,4-thiazole]",> 500 mg/kg
8,"COc1cccc(Cc2nn3c(Cc4cc(OC)c(OC)cc4S(=O)(=O)N(C)C)nnc3s2)c1 [TS58, 3-[2-(N,N-dimethylsulfamoyl)-4,5-dimethoxybenzyl]-6-(3-methoxybenzyl)-1,2,4-triazolo[3,4-b]-1,3,4-thiazole]",> 500 mg/kg
9,"COc1cc(Cc2nnc3sc(-c4cc(OC)c(OC)c(OC)c4)nn23)c(S(=O)(=O)N(C)C)cc1OC [TS59, 3-[2-(N,N-dimethylsulfamoyl)-4,5-dimethoxybenzyl]-6-(3,4,5-trimethoxyphenyl)-1,2,4-triazolo[3,4-b]-1,3,4-thiazole]",> 500 mg/kg
10,"COc1cc(Cc2nnc3sc(-c4ccc([N+](=O)[O-])cc4Cl)nn23)c(S(=O)(=O)N(C)C)cc1OC [TS61, 3-[2-(N,N-dimethylsulfamoyl)-4,5-dimethoxybenzyl]-6-(2-chloro-4-nitrophenyl)-1,2,4-triazolo[3,4-b]-1,3,4-thiazole]",> 500 mg/kg
11,"COc1cc(Cc2nnc3sc(-c4cccc(N)c4)nn23)c(S(=O)(=O)N(C)C)cc1OC [TS70, 3-[2-(N,N-dimethylsulfamoyl)-4,5-dimethoxybenzyl]-6-(3-aminophenyl)-1,2,4-triazolo[3,4-b]-1,3,4-thiazole]",> 500 mg/kg
12,"COc1cc(Cc2nnc3sc(-c4ccc(N)cc4)nn23)c(S(=O)(=O)N(C)C)cc1OC [TS71, 3-[2-(N,N-dimethylsulfamoyl)-4,5-dimethoxybenzyl]-6-(4-aminophenyl)-1,2,4-triazolo[3,4-b]-1,3,4-thiazole]",> 500 mg/kg
13,"COc1cc(Cc2nnc3sc(-c4ccccc4)nn23)c(S(=O)(=O)N(C)C)cc1OC [TS167, 3-[2-(N,N-dimethylsulfamoyI)-4,5-dimethoxy-benzyl]-6-phenyl-1,2,4-triazolo[3,4-b]-1,3,4-thiazole]",> 500 mg/kg
